Assay results: paper PMC4858568
No constants are given. Whether binding was seen depends on the method and setting. In cells and extracts the contact can be indirect. A yes stands for co-enrichment or nearness to the bait. Other partners may have been found. No binding means not detected with the bait. Sequences can lack the tags named with a protein.

Sequences of proteins named here, by UniProt entry; tags and fusion partners are left off.
UniProt Q9UNS1: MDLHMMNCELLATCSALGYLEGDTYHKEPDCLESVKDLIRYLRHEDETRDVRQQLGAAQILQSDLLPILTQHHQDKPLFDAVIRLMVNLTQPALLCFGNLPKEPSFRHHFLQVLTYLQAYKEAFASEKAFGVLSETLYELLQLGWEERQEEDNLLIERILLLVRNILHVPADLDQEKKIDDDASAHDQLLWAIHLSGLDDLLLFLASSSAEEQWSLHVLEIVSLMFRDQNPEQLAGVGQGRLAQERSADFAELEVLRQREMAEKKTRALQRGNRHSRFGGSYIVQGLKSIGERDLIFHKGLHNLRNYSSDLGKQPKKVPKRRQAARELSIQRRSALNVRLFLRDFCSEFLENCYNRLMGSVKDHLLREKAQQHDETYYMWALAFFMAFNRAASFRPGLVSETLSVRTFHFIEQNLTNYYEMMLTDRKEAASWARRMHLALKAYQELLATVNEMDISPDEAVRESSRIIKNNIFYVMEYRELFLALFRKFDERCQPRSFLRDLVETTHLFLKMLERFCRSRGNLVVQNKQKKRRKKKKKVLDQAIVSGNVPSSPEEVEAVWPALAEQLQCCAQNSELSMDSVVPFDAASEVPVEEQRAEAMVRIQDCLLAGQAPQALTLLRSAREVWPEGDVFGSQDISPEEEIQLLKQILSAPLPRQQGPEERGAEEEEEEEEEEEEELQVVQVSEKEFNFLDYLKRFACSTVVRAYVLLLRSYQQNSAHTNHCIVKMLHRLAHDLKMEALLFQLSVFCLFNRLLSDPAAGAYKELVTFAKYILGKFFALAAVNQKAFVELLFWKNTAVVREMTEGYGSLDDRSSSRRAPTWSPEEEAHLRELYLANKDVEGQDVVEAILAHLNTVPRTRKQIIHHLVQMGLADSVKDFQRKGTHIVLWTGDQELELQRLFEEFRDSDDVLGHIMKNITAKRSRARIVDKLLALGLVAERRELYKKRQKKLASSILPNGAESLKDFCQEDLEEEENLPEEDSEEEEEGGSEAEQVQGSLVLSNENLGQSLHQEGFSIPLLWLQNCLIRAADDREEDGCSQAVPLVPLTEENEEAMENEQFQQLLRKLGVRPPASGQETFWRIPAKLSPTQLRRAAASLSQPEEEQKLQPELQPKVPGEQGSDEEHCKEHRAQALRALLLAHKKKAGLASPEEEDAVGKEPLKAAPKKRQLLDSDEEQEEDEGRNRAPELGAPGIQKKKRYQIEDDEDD

Target: T1, FLAG-C4orf27 (histone PARylation factor 1, HPF1), wild type (human) (UniProt Q9NWY4)
T1 sequence: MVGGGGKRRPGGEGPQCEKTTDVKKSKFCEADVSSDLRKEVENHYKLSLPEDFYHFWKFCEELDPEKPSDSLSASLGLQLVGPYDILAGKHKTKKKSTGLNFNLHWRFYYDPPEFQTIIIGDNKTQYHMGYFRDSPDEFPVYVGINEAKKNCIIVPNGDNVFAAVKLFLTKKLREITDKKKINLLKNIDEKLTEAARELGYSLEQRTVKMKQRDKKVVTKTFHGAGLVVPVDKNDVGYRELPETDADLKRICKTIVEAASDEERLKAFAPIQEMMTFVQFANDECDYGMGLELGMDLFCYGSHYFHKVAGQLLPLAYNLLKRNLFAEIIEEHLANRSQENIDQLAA
Test: affinity purification with mass spectrometry; FLAG-C4orf27-associated proteins, label-free quantification, n = 3 independent experiments; cells and buffers not told in the text shown

binding: no binding
Substance: Timeless (endogenous) (from UniProt Q9UNS1 1-1208)
